Results are given in words; binding and its absence hold for the method and conditions named. In cells and extracts the contact can be indirect. These calls come from enrichment with a bait or labelling near it, and not all partners need be listed. Tags and fused reporters may be left off the sequences shown.
Assays:
DDB1a [1] = target: T1, DDB1a (Arabidopsis, UniProt Q9M0V3 1-1088); test: tandem affinity purification, mass spectrometry (co-purification)
T1 construct: Endogenous protein in the TAP from Arabidopsis cell cultures; also called DDB1 proteins
T1 sequence (looked up): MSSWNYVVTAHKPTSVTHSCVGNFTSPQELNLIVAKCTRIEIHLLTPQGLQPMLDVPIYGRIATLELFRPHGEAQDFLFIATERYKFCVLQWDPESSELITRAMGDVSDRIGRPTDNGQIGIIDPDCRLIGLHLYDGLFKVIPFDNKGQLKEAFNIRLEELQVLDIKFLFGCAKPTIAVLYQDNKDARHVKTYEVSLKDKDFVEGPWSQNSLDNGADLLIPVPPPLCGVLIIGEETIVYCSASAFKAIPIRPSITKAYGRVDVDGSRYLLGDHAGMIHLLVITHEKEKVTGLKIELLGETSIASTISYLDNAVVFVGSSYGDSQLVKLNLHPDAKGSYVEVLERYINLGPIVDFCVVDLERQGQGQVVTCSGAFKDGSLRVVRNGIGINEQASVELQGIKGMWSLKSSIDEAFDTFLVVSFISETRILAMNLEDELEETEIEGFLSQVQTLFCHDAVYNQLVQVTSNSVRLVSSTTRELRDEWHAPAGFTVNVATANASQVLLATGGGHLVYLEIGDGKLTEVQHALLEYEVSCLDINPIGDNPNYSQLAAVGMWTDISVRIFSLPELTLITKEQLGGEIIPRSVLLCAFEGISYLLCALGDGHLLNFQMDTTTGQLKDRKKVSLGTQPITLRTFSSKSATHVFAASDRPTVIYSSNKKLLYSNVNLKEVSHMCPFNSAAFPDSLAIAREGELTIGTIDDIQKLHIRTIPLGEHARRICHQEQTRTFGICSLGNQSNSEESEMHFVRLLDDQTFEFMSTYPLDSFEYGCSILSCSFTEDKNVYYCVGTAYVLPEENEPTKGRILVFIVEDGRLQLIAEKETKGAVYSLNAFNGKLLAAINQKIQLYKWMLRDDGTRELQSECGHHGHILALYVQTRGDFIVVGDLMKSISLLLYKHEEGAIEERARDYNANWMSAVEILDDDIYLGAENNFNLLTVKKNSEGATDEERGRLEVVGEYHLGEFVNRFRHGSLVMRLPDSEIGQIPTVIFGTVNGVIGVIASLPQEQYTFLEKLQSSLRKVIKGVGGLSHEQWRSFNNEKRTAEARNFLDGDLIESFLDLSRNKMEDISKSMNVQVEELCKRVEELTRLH

DDB1b [2] = target: T2, DDB1b (Arabidopsis, UniProt O49552 1-1088); test: as above
T2 construct: Endogenous protein in the TAP; also called DDB1 proteins
T2 sequence (looked up): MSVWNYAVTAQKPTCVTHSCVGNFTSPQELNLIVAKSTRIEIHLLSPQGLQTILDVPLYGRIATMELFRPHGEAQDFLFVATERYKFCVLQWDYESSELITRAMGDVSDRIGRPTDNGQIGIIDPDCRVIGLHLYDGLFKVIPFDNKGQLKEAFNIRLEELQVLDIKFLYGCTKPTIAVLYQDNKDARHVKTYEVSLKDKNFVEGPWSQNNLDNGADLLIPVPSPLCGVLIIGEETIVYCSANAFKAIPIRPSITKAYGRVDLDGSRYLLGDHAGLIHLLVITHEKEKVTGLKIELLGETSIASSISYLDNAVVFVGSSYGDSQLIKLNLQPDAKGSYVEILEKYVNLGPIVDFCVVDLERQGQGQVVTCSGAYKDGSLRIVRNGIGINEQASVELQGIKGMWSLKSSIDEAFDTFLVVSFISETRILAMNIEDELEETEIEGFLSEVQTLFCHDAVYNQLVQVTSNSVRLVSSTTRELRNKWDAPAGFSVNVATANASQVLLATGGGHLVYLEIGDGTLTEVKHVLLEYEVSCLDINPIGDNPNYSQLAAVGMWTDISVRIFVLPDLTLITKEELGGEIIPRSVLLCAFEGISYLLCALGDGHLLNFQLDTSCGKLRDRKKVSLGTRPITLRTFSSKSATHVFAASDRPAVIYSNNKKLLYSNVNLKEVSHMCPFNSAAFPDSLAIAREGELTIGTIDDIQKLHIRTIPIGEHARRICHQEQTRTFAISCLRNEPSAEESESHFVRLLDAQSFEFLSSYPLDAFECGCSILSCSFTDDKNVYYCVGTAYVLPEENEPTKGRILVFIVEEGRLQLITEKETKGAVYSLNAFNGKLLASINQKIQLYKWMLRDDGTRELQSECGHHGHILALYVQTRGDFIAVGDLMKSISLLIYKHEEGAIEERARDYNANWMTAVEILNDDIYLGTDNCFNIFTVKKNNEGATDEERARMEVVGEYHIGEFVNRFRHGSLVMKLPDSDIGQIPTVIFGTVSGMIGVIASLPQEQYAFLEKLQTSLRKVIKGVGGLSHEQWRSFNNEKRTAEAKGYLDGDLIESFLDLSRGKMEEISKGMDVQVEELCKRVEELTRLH

DDB1a [3] = target: T1, DDB1a; test: tandem affinity purification from Arabidopsis cell cultures, mass spectrometry (co-purification)
DDB1b [4] = target: T2, DDB1b; test: as above

Measured: binding

B1: C-terminal TAP-tagged DDA1 (GS-tagged DDA1 fusion) (protein, not shown: small tags and cut ends)
chain: MASILGDLPSFDPHNFSQHRPSDPSNPSKMVPTTYRPTHNRTLPPPDQVITTEVKNILIRSFYQRAEEKLRPKRPATDHLAAEHVNKHFRAASSSSSTQGL
binds: all assays above

From patent publication US20160102316A1, “STRESS TOLERANT PLANTS” (CONSEJO SUPERIOR DE INVESTIGACIONES CIENTIFICAS(CSIC), priority 2013, published 2016)
